# Data as given in patent publication US7858322B2, “Method of determining inhibition of binding to TRPM7 protein” (NoNo, Inc., priority 2003, dated 2010).
# At least one peptide structure holds a part that was inferred or is arguable (an end, a ring closure or a residue). Residues, ends and D or L forms follow the SMILES beside them. *: point of attachment. Biotin = O=C1N[C@H]2[C@H](CS[C@H]2CCCCC(=O)*)N1
# Assays:
# ZO-1 d2 = target: T1, ZO-1 d2 (Homo sapiens, UniProt Q07157, DEL264-264); test: G assays, titrations or binding assays of peptides; details: peptide demonstrated to bind ZO-1 d2 in G assays
# T1 construct: made in house; host or cells: E. coli (DH5α, BL21 or JM109)
# T1 sequence (Q07157 with tags, fused parts or gaps DEL264-264): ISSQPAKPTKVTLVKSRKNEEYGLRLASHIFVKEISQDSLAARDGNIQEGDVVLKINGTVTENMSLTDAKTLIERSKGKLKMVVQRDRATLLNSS
# TIP1 d1 = target: T2, TIP1 d1 (Homo sapiens, UniProt O14907); test: G3 assay, binding of biotinylated peptide to GST-PDZ fusion; details: G3 titration
# T2 construct: made in house; host or cells: E. coli (DH5α, BL21 or JM109)
# T2 sequence (O14907 14-116): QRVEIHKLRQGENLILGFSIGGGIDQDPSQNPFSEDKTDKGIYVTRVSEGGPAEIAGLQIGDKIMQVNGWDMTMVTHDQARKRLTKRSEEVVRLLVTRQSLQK
# RIM2 d1 = target: T3, RIM2 d1 (Homo sapiens, UniProt Q9UQ26); test: G assays, titrations or binding assays of peptides; details: peptide demonstrated to bind RIM2 d1 in G assays
# T3 construct: made in house; host or cells: E. coli (DH5α, BL21 or JM109)
# T3 sequence (Q9UQ26 632-757): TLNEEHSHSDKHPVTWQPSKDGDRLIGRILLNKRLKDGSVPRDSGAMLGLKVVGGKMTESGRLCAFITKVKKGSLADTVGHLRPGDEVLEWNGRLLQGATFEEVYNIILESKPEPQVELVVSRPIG
structure (smiles),measurement,setting,value
CC(C)[C@H](NC(=O)[C@H](CCC(=O)O)NC(=O)[C@@H](NC(=O)[C@H](CCC(=O)O)NC(=O)[C@H](CCCNC(=N)N)NC(=O)[C@H](Cc1ccccc1)NC(=O)[C@H](Cc1c[nH]cn1)NC(=O)[C@H](CCCCN)NC(=O)[C@H](CCC(=O)O)NC(=O)[C@H](CCCNC(=N)N)NC(=O)[C@H](CCCNC(=N)N)NC(=O)[C@H](CCCNC(=N)N)NC(=O)[C@H](CCC(N)=O)NC(=O)[C@H](CCCNC(=N)N)NC(=O)[C@H](CCCNC(=N)N)NC(=O)[C@H](CCCCN)NC(=O)[C@H](CCCCN)NC(=O)[C@H](CCCNC(=N)N)NC(=O)CNC(=O)[C@H](Cc1ccc(O)cc1)NC(=O)CCCC[C@@H]1SC[C@@H]2NC(=O)N[C@@H]21)[C@@H](C)O)C(=O)O [AA353] (Biotin-YGRKKRRQRRREKHFRETEV-OH),POZ domain bound,ZO-1 d2,ZO-1 D2
same,ODmax (450 nm),TIP1 d1,3.00
same,POZ domain bound,RIM2 d1,RIM2 D1
